These are yes or no findings as the source states them, for the method shown. Some binding calls cover weakened binding; strength is not graded here.

By UniProt entry, the sequences of proteins in these tests, tags left out. Residues count along the entry.
UniProt P51654, residues 25-559: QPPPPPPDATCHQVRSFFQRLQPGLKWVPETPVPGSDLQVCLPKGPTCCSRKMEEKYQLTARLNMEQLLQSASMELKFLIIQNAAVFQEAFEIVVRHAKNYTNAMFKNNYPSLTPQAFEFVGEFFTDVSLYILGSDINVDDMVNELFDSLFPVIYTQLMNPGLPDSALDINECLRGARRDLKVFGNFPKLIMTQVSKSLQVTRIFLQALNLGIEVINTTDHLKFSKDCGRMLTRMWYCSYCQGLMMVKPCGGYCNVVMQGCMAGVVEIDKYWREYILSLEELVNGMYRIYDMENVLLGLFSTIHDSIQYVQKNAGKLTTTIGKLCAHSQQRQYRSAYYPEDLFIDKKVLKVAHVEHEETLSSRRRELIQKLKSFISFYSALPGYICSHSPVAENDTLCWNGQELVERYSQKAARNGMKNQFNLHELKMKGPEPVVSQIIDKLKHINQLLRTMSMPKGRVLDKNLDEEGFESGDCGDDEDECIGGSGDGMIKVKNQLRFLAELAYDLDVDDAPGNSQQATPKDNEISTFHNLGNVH

The chains are these.
B1: VL1.M2-VH2.M10 humanized scFv (scFv, not shown: a dimerising Fc or GST)
scFv: DIVMTQTPLSLSVTPGQPASISCRSSQSLVHSNGNTYLHWYLQKPGQSPQLLIYKVSSRFSGVPDRFSGSGSGTDFTLKISRVEAEDVGVYYCSQNTHVPPTFGQGTKVEIKGGGGSGGGGSGGGGSQVQLVQSGAEVKKPGASVKVSCKASGYTFTSYEMHWVRQAPGQGLEWMGALDPSGGDTAYSQKFQGRVTLTADTSTSTVYMELSSLRSEDTAVYYCTRFYSYTYWGQGTLVTVSS
B2: VL1.M7-VH2.M6 humanized scFv (scFv, not shown: a dimerising Fc or GST)
scFv: DIVMTQTPLSLSVTPGQPASISCRSSQSLVHSNGNTYLHWYLQKPGQSPQLLIYKVSSRFSGVPDRFSGSGSGTDFTLKISRVEAEDVGVYYCSQGTHVPPTFGQGTKVEIKGGGGSGGGGSGGGGSQVQLVQSGAEVKKPGASVKVSCKASGYTFTSYEMHWVRQAPGQGLEWMGALDPKTGDTAYSQKFQGRVTLTADTSTSTVYMELSSLRSEDTAVYYCTRFYSYTYWGQGTLVTVSS
B3: VL1.M3-VH2.M6 humanized scFv (scFv, not shown: a dimerising Fc or GST)
scFv: DIVMTQTPLSLSVTPGQPASISCRSSQSLVHSNGKTYLHWYLQKPGQSPQLLIYKVSSRFSGVPDRFSGSGSGTDFTLKISRVEAEDVGVYYCSQNTHVPPTFGQGTKVEIKGGGGSGGGGSGGGGSQVQLVQSGAEVKKPGASVKVSCKASGYTFTSYEMHWVRQAPGQGLEWMGALDPKTGDTAYSQKFQGRVTLTADTSTSTVYMELSSLRSEDTAVYYCTRFYSYTYWGQGTLVTVSS
B4: VL1.M8-VH2.M6 humanized scFv (scFv, not shown: a dimerising Fc or GST)
scFv: DIVMTQTPLSLSVTPGQPASISCRSSQSLVHSNGNTYLHWYLQKPGQSPQLLIYKVSSRFSGVPDRFSGSGSGTDFTLKISRVEAEDVGVYYCSQNTHWPPTFGQGTKVEIKGGGGSGGGGSGGGGSQVQLVQSGAEVKKPGASVKVSCKASGYTFTSYEMHWVRQAPGQGLEWMGALDPKTGDTAYSQKFQGRVTLTADTSTSTVYMELSSLRSEDTAVYYCTRFYSYTYWGQGTLVTVSS
B5: VL1.M2-VH2.M8 humanized scFv (scFv, not shown: a dimerising Fc or GST)
scFv: DIVMTQTPLSLSVTPGQPASISCRSSQSLVHSNGNTYLHWYLQKPGQSPQLLIYKVSSRFSGVPDRFSGSGSGTDFTLKISRVEAEDVGVYYCSQNTHVPPTFGQGTKVEIKGGGGSGGGGSGGGGSQVQLVQSGAEVKKPGASVKVSCKASGYTFTSYEMHWVRQAPGQGLEWMGALDPSTGDTAYSQKFQGRVTLTADTSTSTVYMELSSLRSEDTAVYYCTRFYSYTYWGQGTLVTVSS
B6: VL1.M6-VH2.M6 humanized scFv (scFv, not shown: a dimerising Fc or GST)
scFv: DIVMTQTPLSLSVTPGQPASISCRSSQSLVHSNGNTYLHWYLQKPGQSPQLLIYKVSSRFSGVPDRFSGSGSGTDFTLKISRVEAEDVGVYYCMQNTHVPPTFGQGTKVEIKGGGGSGGGGSGGGGSQVQLVQSGAEVKKPGASVKVSCKASGYTFTSYEMHWVRQAPGQGLEWMGALDPKTGDTAYSQKFQGRVTLTADTSTSTVYMELSSLRSEDTAVYYCTRFYSYTYWGQGTLVTVSS
B7: VL1.M2-VH2.M11 humanized scFv (scFv, not shown: a dimerising Fc or GST)
scFv: DIVMTQTPLSLSVTPGQPASISCRSSQSLVHSNGNTYLHWYLQKPGQSPQLLIYKVSSRFSGVPDRFSGSGSGTDFTLKISRVEAEDVGVYYCSQNTHVPPTFGQGTKVEIKGGGGSGGGGSGGGGSQVQLVQSGAEVKKPGASVKVSCKASGYTFTSYEMHWVRQAPGQGLEWMGALDPKTGSTAYSQKFQGRVTLTADTSTSTVYMELSSLRSEDTAVYYCTRFYSYTYWGQGTLVTVSS
B8: VL1.M2-VH2.M9 humanized scFv (scFv, not shown: a dimerising Fc or GST)
scFv: DIVMTQTPLSLSVTPGQPASISCRSSQSLVHSNGNTYLHWYLQKPGQSPQLLIYKVSSRFSGVPDRFSGSGSGTDFTLKISRVEAEDVGVYYCSQNTHVPPTFGQGTKVEIKGGGGSGGGGSGGGGSQVQLVQSGAEVKKPGASVKVSCKASGYTFTSYEMHWVRQAPGQGLEWMGALDPKGGDTAYSQKFQGRVTLTADTSTSTVYMELSSLRSEDTAVYYCTRFYSYTYWGQGTLVTVSS
B9: VL1.M2-VH2.M6 humanized scFv (scFv, not shown: a dimerising Fc or GST)
scFv: DIVMTQTPLSLSVTPGQPASISCRSSQSLVHSNGNTYLHWYLQKPGQSPQLLIYKVSSRFSGVPDRFSGSGSGTDFTLKISRVEAEDVGVYYCSQNTHVPPTFGQGTKVEIKGGGGSGGGGSGGGGSQVQLVQSGAEVKKPGASVKVSCKASGYTFTSYEMHWVRQAPGQGLEWMGALDPKTGDTAYSQKFQGRVTLTADTSTSTVYMELSSLRSEDTAVYYCTRFYSYTYWGQGTLVTVSS
notes: Crude scFv with Fc tag from HEK293 supernatant
B10: VL1.M2-VH2.M1 humanized scFv (scFv, not shown: a dimerising Fc or GST)
scFv: DIVMTQTPLSLSVTPGQPASISCRSSQSLVHSNGNTYLHWYLQKPGQSPQLLIYKVSSRFSGVPDRFSGSGSGTDFTLKISRVEAEDVGVYYCSQNTHVPPTFGQGTKVEIKGGGGSGGGGSGGGGSQVQLVQSGAEVKKPGASVKVSCKASGYTFTSYEMHWVRQAPGQGLEWMGALDPKTGDTAYSQKFKGRVTLTADTSTSTVYMELSSLRSEDTAVYYCTRFYSYTYWGQGTLVTVSS
notes: as for B9
B11: VL1-VH2.M6 humanized scFv (scFv, not shown: a dimerising Fc or GST)
scFv: DIVMTQTPLSLSVTPGQPASISCRSSQSLVHSNGNTYLHWYLQKPGQSPQLLIYKVSNRFSGVPDRFSGSGSGTDFTLKISRVEAEDVGVYYCSQNTHVPPTFGQGTKVEIKGGGGSGGGGSGGGGSQVQLVQSGAEVKKPGASVKVSCKASGYTFTSYEMHWVRQAPGQGLEWMGALDPKTGDTAYSQKFQGRVTLTADTSTSTVYMELSSLRSEDTAVYYCTRFYSYTYWGQGTLVTVSS
notes: as for B9
B12: VL1-VH2.M1 humanized scFv (scFv, not shown: a dimerising Fc or GST)
scFv: DIVMTQTPLSLSVTPGQPASISCRSSQSLVHSNGNTYLHWYLQKPGQSPQLLIYKVSNRFSGVPDRFSGSGSGTDFTLKISRVEAEDVGVYYCSQNTHVPPTFGQGTKVEIKGGGGSGGGGSGGGGSQVQLVQSGAEVKKPGASVKVSCKASGYTFTSYEMHWVRQAPGQGLEWMGALDPKTGDTAYSQKFKGRVTLTADTSTSTVYMELSSLRSEDTAVYYCTRFYSYTYWGQGTLVTVSS
notes: as for B9
B13: VL1-VH2.M5 humanized scFv (scFv, not shown: a dimerising Fc or GST)
scFv: DIVMTQTPLSLSVTPGQPASISCRSSQSLVHSNGNTYLHWYLQKPGQSPQLLIYKVSNRFSGVPDRFSGSGSGTDFTLKISRVEAEDVGVYYCSQNTHVPPTFGQGTKVEIKGGGGSGGGGSGGGGSQVQLVQSGAEVKKPGASVKVSCKASGYTFTDYEMHWVRQAPGQGLEWMGALDPKTGDTAYSQKFQGRVTLTADTSTSTVYMELSSLRSEDTAVYYCTRFYSYTYWGQGTLVTVSS
notes: as for B9
B14: VL1-VH2 humanized scFv (scFv, not shown: a dimerising Fc or GST)
scFv: DIVMTQTPLSLSVTPGQPASISCRSSQSLVHSNGNTYLHWYLQKPGQSPQLLIYKVSNRFSGVPDRFSGSGSGTDFTLKISRVEAEDVGVYYCSQNTHVPPTFGQGTKVEIKGGGGSGGGGSGGGGSQVQLVQSGAEVKKPGASVKVSCKASGYTFTDYEMHWVRQAPGQGLEWMGALDPKTGDTAYSQKFKGRVTLTADTSTSTVYMELSSLRSEDTAVYYCTRFYSYTYWGQGTLVTVSS
notes: as for B9
B15: VL1.M2-VH2.M5 humanized scFv (scFv, not shown: a dimerising Fc or GST)
scFv: DIVMTQTPLSLSVTPGQPASISCRSSQSLVHSNGNTYLHWYLQKPGQSPQLLIYKVSSRFSGVPDRFSGSGSGTDFTLKISRVEAEDVGVYYCSQNTHVPPTFGQGTKVEIKGGGGSGGGGSGGGGSQVQLVQSGAEVKKPGASVKVSCKASGYTFTDYEMHWVRQAPGQGLEWMGALDPKTGDTAYSQKFQGRVTLTADTSTSTVYMELSSLRSEDTAVYYCTRFYSYTYWGQGTLVTVSS
notes: as for B9
B16: VL1.M2-VH2 humanized scFv (scFv, not shown: a dimerising Fc or GST)
scFv: DIVMTQTPLSLSVTPGQPASISCRSSQSLVHSNGNTYLHWYLQKPGQSPQLLIYKVSSRFSGVPDRFSGSGSGTDFTLKISRVEAEDVGVYYCSQNTHVPPTFGQGTKVEIKGGGGSGGGGSGGGGSQVQLVQSGAEVKKPGASVKVSCKASGYTFTDYEMHWVRQAPGQGLEWMGALDPKTGDTAYSQKFKGRVTLTADTSTSTVYMELSSLRSEDTAVYYCTRFYSYTYWGQGTLVTVSS
notes: as for B9

The first assay concerns the target T1, GPC3 (UniProt P51654 25-559, limits assumed).
T1 construct: also called antigen GPC3; Glypican 3
The assay is described as follows: SPR as in Example 1.
For the molecule B1, the binding result is recorded as “binds”.

Regarding B2, the binding entry is “binds”.

Regarding B3, the binding entry is listed as “binds”.

With B4, the binding result was “binds”.

Take B5: the binding result was “binds”.

As for B6, the binding entry is reported as “binds”.

For B7, the binding result is reported as “binds”.

As for B8, the binding result is “binds”.

Another assay concerns the target T1, GPC3. The assay is described as follows: SPR (Biacore T200); scFv-Fc captured by anti-human Fc pAb, GPC3 in flow. In general terms: SPR reads the build-up and loss of mass on a sensor chip optically.
On to B9, for which the binding entry was “binds”.

As for B10, the binding result is recorded as “binds”.

As to B11, the binding result is on record as “binds”.

In the case of B12, the binding result is “binds”.

For B13, the binding entry is on record as “binds”.

Take B14: the binding entry is “binds”.

With B15, the binding result is reported as “binds”.

With B16, the binding entry was “binds”.
